The list is a part of this screen's results and no random one: it gathers tests that were run many times, whatever their T/C, doses with no T/C, and many T/C values between a quarter and a half above the control. Other doses and runs of a compound stand elsewhere. T/C: endpoint of the treated group in % of that of the vehicle group. Some entries give survivors of the animals treated and no T/C: the source holds a T/C of zero for them, seemingly a mark for toxic or unscored doses. Some survivor counts are full or nearly so, which does not show that the dose was tolerated: the source hardly ever lists a survival T/C far under the control, and the zero likely stands for such cases as well. Counts of survivors are from the toxicity check (mostly the fifth day) where no day follows; animals may have died later. Schedule codes are those of the source, read here as Q, the interval in days (D) or hours (H), X, the number of doses. Some entries hold several experiments; the values are given in rising order. Some structures stand for samples that the source files as different forms (salt, stereo form or complex); doses refer to the form tested. Where survival is the endpoint, this PubChem deposit counts one and a half times the control or more as active, and values a quarter to a half above the control carry no call in these data; other NCI protocols may use other cut-offs.
System: L1210 leukemia ip in BDF1 mice, survival T/C
Assay: NCI In Vivo Anticancer Drug Screen. Data for tumor model L1210 Leukemia (intraperitoneal) in B6D2F1 (BDF1) mice
Details: T/C endpoint: mean survival time, higher T/C = longer survival
[1] = dose: 25.0 mg/kg/injection, schedule: Q04DX003 (ip), vehicle: saline
[2] = dose: 50.0 mg/kg/injection, schedule: Q04DX003 (ip), vehicle: saline
[3] = dose: 100.0 mg/kg/injection, schedule: Q04DX003 (ip), vehicle: saline
[4] = dose: 400.0 mg/kg/injection, schedule: Q04DX002 (ip), vehicle: Klucel (hydroxypropylcellulose) (HPC)
[5] = dose: 400.0 mg/kg/injection, schedule: Q04DX002 (ip), vehicle: saline with Tween-80
[6] = dose: 200.0 mg/kg/injection, schedule: Q04DX003 (ip), vehicle: saline
[7] = dose: 400.0 mg/kg/injection, schedule: Q04DX003 (ip), vehicle: saline
[8] = dose: 100.0 mg/kg/injection, schedule: Q01DX009 (ip), vehicle: Klucel (hydroxypropylcellulose) (HPC)
[9] = dose: 200.0 mg/kg/injection, schedule: Q01DX009 (ip), vehicle: Klucel (hydroxypropylcellulose) (HPC)
[10] = dose: 200.0 mg/kg/injection, schedule: Q01DX001 (ip), vehicle: saline
[11] = dose: 400.0 mg/kg/injection, schedule: Q01DX001 (ip), vehicle: saline

SMILES: CC(CN(C)C)CN1c2ccccc2Sc2ccccc21 (stereo unspecified)
- T/C [1]: 128 % of control
- T/C (dose: 50.0 mg/kg/injection, schedule: Q04DX003 (ip), vehicle: saline with Tween-80): 136 % of control
- survivor count [2]: 4 of 6
- survivor count (dose: 100.0 mg/kg/injection, schedule: Q04DX003 (ip), vehicle: saline with Tween-80): 6 of 6
- survivor count [3]: 0 of 6
- survivor count (dose: 200.0 mg/kg/injection, schedule: Q04DX003 (ip), vehicle: saline with Tween-80): 3 of 6

SMILES: S=C(NCc1ccccc1)NCc1ccccc1
- survivor count (dose: 200.0 mg/kg/injection, schedule: Q04DX002 (ip), vehicle: Klucel (hydroxypropylcellulose) (HPC)): 3 of 3
- survivor count [4]: 2 of 3

SMILES: COC(=O)c1ccccc1N=NNc1ccccc1C(=O)OC
- survivor count [5]: 1 of 3

SMILES: CNC(=S)n1ncnc1N
- survivor count (dose: 150.0 mg/kg/injection, schedule: Q01DX009 (ip), vehicle: saline): 1 of 6
- survivor count [6]: 0 of 6
- survivor count (dose: 225.0 mg/kg/injection, schedule: Q01DX009 (ip), vehicle: saline): 0 of 6
- survivor count (dose: 335.0 mg/kg/injection, schedule: Q01DX009 (ip), vehicle: saline): 0 of 6
- survivor count [7]: 0 of 6

SMILES: Nc1ncc(CBr)c(N)n1
- survivor count [7]: 3 of 6

SMILES: CCC[CH2][Sn]1([CH2]CCC)[O]OC(c2ccc(OC)cc2)[O]1 (stereo unspecified)
- survivor count (dose: 25.0 mg/kg/injection, schedule: Q01DX005 (sc), vehicle: olive oil, sesame oil, peanut oil): 3 of 3
- survivor count (dose: 25.0 mg/kg/injection, schedule: Q01DX009 (sc), vehicle: olive oil, sesame oil, peanut oil): 5 of 6 and 3 of 3
- survivor count (dose: 50.0 mg/kg/injection, schedule: Q01DX005 (sc), vehicle: olive oil, sesame oil, peanut oil): 3 of 3
- survivor count (dose: 100.0 mg/kg/injection, schedule: Q01DX005 (sc), vehicle: olive oil, sesame oil, peanut oil): 3 of 3

SMILES: Cc1c2oc3c(C)ccc(C(=O)NCCN4CCOCC4)c3nc-2c(C(=O)NCCN2CCOCC2)c(N)c1=O
- survivor count [5]: 3 of 3

SMILES: CCCCN(CCCC)CC(O)c1ccccc1 (stereo unspecified)
- survivor count (dose: 100.0 mg/kg/injection, schedule: Q01DX009 (ip), vehicle: saline): 1 of 3

SMILES: Cc1cccc(CN=C(N)CCl)n1
- survivor count [4]: 0 of 3

SMILES: ClC(Cl)(Cl)c1ccc(C(Cl)(Cl)Cl)cc1
- survivor count [8]: 1 of 6
- survivor count [9]: 0 of 6
- survivor count (dose: 400.0 mg/kg/injection, schedule: Q04DX003 (ip), vehicle: Klucel (hydroxypropylcellulose) (HPC)): 1 of 6

SMILES: OCc1nccn1Cc1ccccc1
- survivor count (dose: 400.0 mg/kg/injection, schedule: Q01DX009 (ip), vehicle: saline): 0 of 6
- survivor count (dose: 400.0 mg/kg/injection, schedule: Q01DX009 (ip), vehicle: water): 1 of 6

SMILES: CCOC(=O)CCCl
- survivor count (dose: 150.0 mg/kg/injection, schedule: Q04DX003 (ip), vehicle: saline): 6 of 6

SMILES: CC1(C)N=C(N)N=C(N)N1c1ccc(OCCCNC(=O)Nc2ccc(S(=O)(=O)F)cc2)c(Cl)c1
- survivor count (dose: 200.0 mg/kg/injection, schedule: Q01DX004 (ip), vehicle: saline): 0 of 6
- survivor count (dose: 400.0 mg/kg/injection, schedule: Q01DX004 (ip), vehicle: saline): 0 of 6

SMILES: O=C(NCCO)Nc1ccc(Cl)c(Cl)c1
- survivor count (dose: 100.0 mg/kg/injection, schedule: Q04DX003 (ip), vehicle: Klucel (hydroxypropylcellulose) (HPC)): 6 of 6

SMILES: CC(C)C(C)(O)C#N (stereo unspecified)
- survivor count (dose: 40.0 mg/kg/injection, schedule: Q01DX001 (ip), vehicle: saline): 1 of 4
- survivor count (dose: 80.0 mg/kg/injection, schedule: Q01DX001 (ip), vehicle: saline): 0 of 4
- survivor count (dose: 100.0 mg/kg/injection, schedule: Q01DX001 (ip), vehicle: saline): 0 of 4
- survivor count [10]: 0 of 4
- survivor count [11]: 0 of 4

SMILES: COc1cc(C=Nc2ccc(-c3nc(Cc4ccccc4)sc3C)cc2)ccc1N(CCCl)CCCl
- T/C (dose: 13.0 mg/kg/injection, schedule: Q01DX001 (ip), vehicle: carboxymethylcellulose (CMC)): 134 % of control
- T/C (dose: 13.0 mg/kg/injection, schedule: Q01DX009 (ip), vehicle: Klucel (hydroxypropylcellulose) (HPC)): 133 % of control
- T/C (dose: 13.0 mg/kg/injection, schedule: Q01DX009 (ip), vehicle: carboxymethylcellulose (CMC)): 148 % of control
- T/C (dose: 20.0 mg/kg/injection, schedule: Q01DX001 (ip), vehicle: carboxymethylcellulose (CMC)): 148 % of control
- T/C (dose: 20.0 mg/kg/injection, schedule: Q01DX009 (ip), vehicle: Klucel (hydroxypropylcellulose) (HPC)): 138 % of control
- T/C (dose: 30.0 mg/kg/injection, schedule: Q01DX001 (ip), vehicle: carboxymethylcellulose (CMC)): 140 % of control
- survivor count (dose: 30.0 mg/kg/injection, schedule: Q01DX009 (ip), vehicle: carboxymethylcellulose (CMC)): 5 of 6
- T/C (dose: 45.0 mg/kg/injection, schedule: Q01DX009 (ip), vehicle: saline): 132 % of control
- T/C (dose: 60.0 mg/kg/injection, schedule: Q01DX009 (ip), vehicle: saline): 135 % of control
- T/C (dose: 66.0 mg/kg/injection, schedule: Q01DX001 (ip), vehicle: Klucel (hydroxypropylcellulose) (HPC)): 131 % of control
- T/C (dose: 66.0 mg/kg/injection, schedule: Q01DX001 (ip), vehicle: carboxymethylcellulose (CMC)): 135 % of control
- T/C (dose: 100.0 mg/kg/injection, schedule: Q01DX001 (ip), vehicle: Klucel (hydroxypropylcellulose) (HPC)): 138 % of control
- T/C (dose: 100.0 mg/kg/injection, schedule: Q01DX001 (ip), vehicle: carboxymethylcellulose (CMC)): 138 and 140 % of control
- survivor count (dose: 150.0 mg/kg/injection, schedule: Q01DX001 (ip), vehicle: Klucel (hydroxypropylcellulose) (HPC)): 5 of 6
- T/C [10]: 138 % of control
- survivor count (dose: 300.0 mg/kg/injection, schedule: Q01DX001 (ip), vehicle: saline): 4 of 6
- survivor count (dose: 400.0 mg/kg/injection, schedule: Q01DX001 (ip), vehicle: carboxymethylcellulose (CMC)): 0 of 6

SMILES: CC(C)(CCl)COS(=O)(=O)c1ccc(Br)cc1
- survivor count (dose: 200.0 mg/kg/injection, schedule: Q01DX009 (ip), vehicle: saline with Tween-80): 2 of 3

SMILES: COCCOC(=O)c1ccc(C(N)=NC2CCCCC2)cc1
- survivor count [11]: 6 of 6

SMILES: C[N+](C)(C)/N=C/c1ccccc1
- survivor count [8]: 0 of 6
- survivor count [9]: 0 of 6

SMILES: Cc1ccc[n+](CC(=O)c2ccc(-c3ccc(C(=O)C[n+]4cccc(C)c4)cc3)cc2)c1
- survivor count (dose: 12.5 mg/kg/injection, schedule: Q04DX003 (ip), vehicle: saline): 0 of 6
- survivor count [1]: 0 of 6
- survivor count [2]: 0 of 6
- survivor count [3]: 0 of 6
- survivor count [6]: 0 of 6
- survivor count [7]: 0 of 6

SMILES: CCN(CCO)c1ccc(N)cc1C
- survivor count [1]: 6 of 6

SMILES: Cc1cc(C)c(O)c(CN(C)C)c1
- survivor count (dose: 400.0 mg/kg/injection, schedule: Q04DX003 (ip), vehicle: saline with Tween-80): 0 of 3

SMILES: CC[N+](CC)(CC)CCCCCCCCCC[N+](CC)(CC)CC
- survivor count (dose: 1.56 mg/kg/injection, schedule: Q04DX003 (ip), vehicle: saline): 1 of 6
- survivor count (dose: 3.12 mg/kg/injection, schedule: Q04DX003 (ip), vehicle: saline): 0 of 6
- survivor count (dose: 6.25 mg/kg/injection, schedule: Q04DX003 (ip), vehicle: saline): 1 of 6
- survivor count (dose: 100.0 mg/kg/injection, schedule: Q04DX003 (ip), vehicle: water): 0 of 6
- survivor count (dose: 200.0 mg/kg/injection, schedule: Q04DX003 (ip), vehicle: water): 0 of 6
- survivor count (dose: 400.0 mg/kg/injection, schedule: Q04DX003 (ip), vehicle: water): 0 of 6

Source: PubChem BioAssay AID248 (DTP/NCI, 2004)
